# Assay results taken from publication PMC10699776.
# Chains of the proteins cited; added tags and fusions are not shown. Lines headed by an entry give the natural chain unless they say otherwise; changes in a name come on top. Residues count along the entry.
# UniProt P63165, residues 1-97: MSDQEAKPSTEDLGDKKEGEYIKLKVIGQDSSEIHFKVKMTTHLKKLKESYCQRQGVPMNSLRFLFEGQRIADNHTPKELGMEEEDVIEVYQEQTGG
# UniProt P61956: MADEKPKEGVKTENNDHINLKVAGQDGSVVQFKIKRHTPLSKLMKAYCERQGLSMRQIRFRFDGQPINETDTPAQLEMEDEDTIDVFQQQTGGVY
# UniProt P55854, residues 1-92: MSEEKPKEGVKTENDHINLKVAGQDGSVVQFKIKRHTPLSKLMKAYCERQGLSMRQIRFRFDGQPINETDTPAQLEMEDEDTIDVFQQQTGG
# T1: mCherry-RAD54L2^WT (UniProt Q9Y4B4)
# T1 sequence: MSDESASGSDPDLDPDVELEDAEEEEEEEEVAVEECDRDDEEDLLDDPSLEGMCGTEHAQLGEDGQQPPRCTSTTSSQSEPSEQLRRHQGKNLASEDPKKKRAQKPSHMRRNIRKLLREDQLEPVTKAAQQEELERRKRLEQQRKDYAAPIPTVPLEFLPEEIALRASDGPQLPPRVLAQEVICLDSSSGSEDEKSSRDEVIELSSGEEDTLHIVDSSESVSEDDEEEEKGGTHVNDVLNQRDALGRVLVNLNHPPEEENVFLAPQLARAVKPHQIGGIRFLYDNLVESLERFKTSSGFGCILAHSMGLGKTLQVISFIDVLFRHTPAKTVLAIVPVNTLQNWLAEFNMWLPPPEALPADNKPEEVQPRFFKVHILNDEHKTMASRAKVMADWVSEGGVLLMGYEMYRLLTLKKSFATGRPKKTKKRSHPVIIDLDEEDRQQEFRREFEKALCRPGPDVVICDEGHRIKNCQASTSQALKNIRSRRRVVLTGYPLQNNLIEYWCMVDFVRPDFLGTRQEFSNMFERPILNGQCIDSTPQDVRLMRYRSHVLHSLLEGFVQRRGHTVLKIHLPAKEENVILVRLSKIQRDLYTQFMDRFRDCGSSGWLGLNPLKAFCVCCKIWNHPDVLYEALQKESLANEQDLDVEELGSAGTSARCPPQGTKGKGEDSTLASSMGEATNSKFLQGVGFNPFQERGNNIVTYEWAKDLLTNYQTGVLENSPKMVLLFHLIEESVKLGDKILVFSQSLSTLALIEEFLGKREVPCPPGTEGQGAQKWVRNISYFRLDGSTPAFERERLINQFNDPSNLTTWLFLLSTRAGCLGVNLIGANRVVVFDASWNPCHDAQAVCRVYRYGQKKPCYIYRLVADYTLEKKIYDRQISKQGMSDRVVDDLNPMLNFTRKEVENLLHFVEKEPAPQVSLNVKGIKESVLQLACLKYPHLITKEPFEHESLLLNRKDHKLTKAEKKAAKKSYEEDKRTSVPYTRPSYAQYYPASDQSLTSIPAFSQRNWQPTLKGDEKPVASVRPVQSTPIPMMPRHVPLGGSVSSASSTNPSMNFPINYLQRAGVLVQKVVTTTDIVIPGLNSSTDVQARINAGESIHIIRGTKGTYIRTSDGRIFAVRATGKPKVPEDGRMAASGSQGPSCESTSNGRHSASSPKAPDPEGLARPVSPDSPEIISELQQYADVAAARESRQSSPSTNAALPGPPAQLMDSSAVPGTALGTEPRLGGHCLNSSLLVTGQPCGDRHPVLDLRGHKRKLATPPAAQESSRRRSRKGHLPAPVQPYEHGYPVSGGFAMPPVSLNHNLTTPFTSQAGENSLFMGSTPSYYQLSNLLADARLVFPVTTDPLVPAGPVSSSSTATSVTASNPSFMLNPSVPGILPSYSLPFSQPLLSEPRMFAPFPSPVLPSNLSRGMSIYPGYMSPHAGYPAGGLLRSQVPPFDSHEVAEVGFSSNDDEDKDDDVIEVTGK
# B1: zinc finger protein associated with TDP2 and TOP2 (ZATT/ZNF451) (enzyme, UniProt Q9Y4E5 1-1061)
# chain: MGDPGSEIIESVPPAGPEASESTTDENEDDIQFVSEGPLRPVLEYIDLVSSDDEEPSTSYTDENIKRKDHIDYQKDKVALTLARLARHVEVEKQQKEEKNRAFREKIDFQHAHGLQELEFIRGHSDTEAARLCVDQWLKMPGLKTGTINCGTKSSFRRGGHTWVSGKPILCPIMHCNKEFDNGHLLLGHLKRFDHSPCDPTITLHGPFFSSFACVVCYKKFVTQQQYRDHLFDKEATDDGHNNNLLPQIIQCFACPNCFLLFSRKEECSKHMSGKNHFHQSFKLGDNKGIAHPISFPSFAKKLLISLCKDVPFQVKCVACHKTLRSHMELTAHFRVHCRNAGPVAVAEKSITQVAEKFILRGYCPDCNQVFVDETSTQNHKQNSGHKVRVINSVEESVLLYCHSSEGNKDPSSDLHLLLDQSKFSSLKRTMSIKESSSLECIAIPKKKMNLKDKSHEGVACVQKEKSVVKTWFCECNQRFPSEDAVEKHVFSANTMGYKCVVCGKVCDDSGVIRLHMSRIHGGAHLNNFLFWCRTCKKELTRKDTIMAHVTEFHNGHRYFYEMDEVEGETLPSSSTTLDNLTANKPSSAITVIDHSPANSSPRGKWQCRICEDMFDSQEYVKQHCMSLASHKFHRYSCAHCRKPFHKIETLYRHCQDEHDNEIKIKYFCGLCDLIFNVEEAFLSHYEEHHSIDYVFVSEKTETSIKTEDDFPVIETSNQLTCGCRESYICKVNRKEDYSRCLQIMLDKGKLWFRCSLCSATAQNLTDMNTHIHQVHKEKSDEEEQQYVIKCGTCTKAFHDPESAQQHFHRKHCFLQKPSVAHFGSEKSNLYKFTASASHTERKLKQAINYSKSLDMEKGVENDLSYQNIEEEIVELPDLDYLRTMTHIVFVDFDNWSNFFGHLPGHLNQGTFIWGFQGGNTNWKPPLNCKIYNYLNRIGCFFLHPRCSKRKDAADFAICMHAGRLDEQLPKQIPFTILSGDQGFLELENQFKKTQRPAHILNPHHLEGDMMCALLNSISDTTKECDSDDNMGAKNTSIGEEFISTEDVELEEAIRRSLEEM
# Biological target: T1, mCherry-RAD54L2^WT
# Assay: affinity purification with mass spectrometry; mCherry-RAD54L2 precipitated on RFP-Trap magnetic beads from extracts of RPE-1 cells, untreated or etoposide-treated; bound proteins digested in-gel, label-free quantitation against mCherry alone
row,binding,Molecule
1,binds,SUMO1 (from UniProt P63165 1-97)
2,binds,SUMO2 (from UniProt P61956)
3,binds,SUMO3 (from UniProt P55854 1-92)
4,binds,B1

# These are yes or no findings as the source states them, for the method shown. In cells and extracts the contact can be indirect. A yes stands for co-enrichment or nearness to the bait. Other partners may have been found.
